Source: the supplement of paper PMC8728848
This is one part of the list.

Key:
Assay in all cases: glycan array binding signal (z-score within array); higher = stronger binding
Details in all cases: glycan notation: IUPAC condensed, linker removed
[1] = biological target: Gal(b1-3)[Fuc(a1-4)]GlcNAc(b1-6)GalNAc
Method in brief: (§1)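 The binding signal is a Z-score computed within each array and averaged over linkers. Arrays of the same protein sequence at different concentrations or buffers were also averaged together. Data originate from 3228 arrays in the Consortium for Functional Glycomics database, kept only where the protein sequence was available.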

[2] = biological target: Gal(b1-3)[GlcNAc(b1-6)]GalNAc
Method in brief: as §1

[3] = biological target: Gal(b1-3)[Neu5Ac(a2-6)]GalNAc
Method in brief: as §1

[4] = biological target: Gal(b1-3)[Neu5Ac(a2-6)]GlcNAc(b1-4)Gal(b1-4)Glc
Method in brief: as §1

[5] = biological target: Gal(b1-3)[Neu5Ac(b2-6)]GalNAc
Method in brief: as §1

Gal(b1-4)Gal = biological target: Gal(b1-4)Gal
Method in brief: as §1

[6] = biological target: Gal(b1-4)GalNAc(a1-3)[Fuc(a1-2)]Gal(b1-4)GlcNAc
Method in brief: as §1

[7] = biological target: Gal(b1-4)GalNAc(b1-3)[Fuc(a1-2)]Gal(b1-4)GlcNAc
Method in brief: as §1

Gal(b1-4)Glc = biological target: Gal(b1-4)Glc
Method in brief: as §1

Gal(b1-4)Glc6S = biological target: Gal(b1-4)Glc6S
Method in brief: as §1

Gal(b1-4)GlcNAc = biological target: Gal(b1-4)GlcNAc
Method in brief: as §1

[8] = biological target: Gal(b1-4)GlcNAc(a1-6)Gal(b1-4)GlcNAc
Method in brief: as §1

Gal(b1-4)GlcNAc(b1-2)Man = biological target: Gal(b1-4)GlcNAc(b1-2)Man
Method in brief: as §1

[9] = biological target: Gal(b1-4)GlcNAc(b1-2)Man(a1-3)Man(b1-4)GlcNAc(b1-4)GlcNAc
Method in brief: as §1

[10] = biological target: Gal(b1-4)GlcNAc(b1-2)Man(a1-3)[Gal(b1-4)GlcNAc(b1-2)Man(a1-6)]Man(b1-4)GlcNAc(b1-4)GlcNAc
Method in brief: as §1

[11] = biological target: Gal(b1-4)GlcNAc(b1-2)Man(a1-3)[Gal(b1-4)GlcNAc(b1-2)Man(a1-6)]Man(b1-4)GlcNAc(b1-4)[Fuc(a1-6)]GlcNAc
Method in brief: as §1

[12] = biological target: Gal(b1-4)GlcNAc(b1-2)Man(a1-3)[Gal(b1-4)GlcNAc(b1-2)Man(a1-6)][Gal(b1-4)GlcNAc(b1-4)]Man(b1-4)GlcNAc(b1-4)[Fuc(a1-6)]GlcNAc
Method in brief: as §1

[13] = biological target: Gal(b1-4)GlcNAc(b1-2)Man(a1-3)[Gal(b1-4)GlcNAc(b1-2)Man(a1-6)][GlcNAc(b1-4)]Man(b1-4)GlcNAc(b1-4)[Fuc(a1-6)]GlcNAc
Method in brief: as §1

[14] = biological target: Gal(b1-4)GlcNAc(b1-2)Man(a1-3)[GlcNAc(b1-2)Man(a1-6)]Man(b1-4)GlcNAc(b1-4)GlcNAc
Method in brief: as §1

[15] = biological target: Gal(b1-4)GlcNAc(b1-2)Man(a1-3)[GlcNAc(b1-4)][Gal(b1-4)GlcNAc(b1-2)Man(a1-6)]Man(b1-4)GlcNAc(b1-4)GlcNAc
Method in brief: as §1

[16] = biological target: Gal(b1-4)GlcNAc(b1-2)Man(a1-3)[Man(a1-6)]Man(b1-4)GlcNAc(b1-4)GlcNAc
Method in brief: as §1

[17] = biological target: Gal(b1-4)GlcNAc(b1-2)Man(a1-6)Man(b1-4)GlcNAc(b1-4)GlcNAc
Method in brief: as §1

[18] = biological target: Gal(b1-4)GlcNAc(b1-2)Man(a1-6)[GlcNAc(b1-2)Man(a1-3)]Man(b1-4)GlcNAc(b1-4)GlcNAc
Method in brief: as §1

[19] = biological target: Gal(b1-4)GlcNAc(b1-2)Man(a1-6)[Man(a1-3)]Man(b1-4)GlcNAc(b1-4)GlcNAc
Method in brief: as §1

[20] = biological target: Gal(b1-4)GlcNAc(b1-2)[Gal(b1-4)GlcNAc(b1-4)]Man(a1-3)[Gal(b1-4)GlcNAc(b1-2)Man(a1-6)]Man(b1-4)GlcNAc(b1-4)GlcNAc
Method in brief: as §1

[21] = biological target: Gal(b1-4)GlcNAc(b1-2)[Gal(b1-4)GlcNAc(b1-4)]Man(a1-3)[Gal(b1-4)GlcNAc(b1-2)[Gal(b1-4)GlcNAc(b1-6)]Man(a1-6)]Man(b1-4)GlcNAc(b1-4)GlcNAc
Method in brief: as §1

[22] = biological target: Gal(b1-4)GlcNAc(b1-2)[Gal(b1-4)GlcNAc(b1-4)]Man(a1-3)[GlcNAc(b1-4)][Gal(b1-4)GlcNAc(b1-2)Man(a1-6)]Man(b1-4)GlcNAc(b1-4)GlcNAc
Method in brief: as §1

[23] = biological target: Gal(b1-4)GlcNAc(b1-2)[Gal(b1-4)GlcNAc(b1-4)]Man(a1-3)[GlcNAc(b1-4)][Gal(b1-4)GlcNAc(b1-2)[Gal(b1-4)GlcNAc(b1-6)]Man(a1-6)]Man(b1-4)GlcNAc(b1-4)GlcNAc
Method in brief: as §1

[24] = biological target: Gal(b1-4)GlcNAc(b1-2)[Gal(b1-4)GlcNAc(b1-6)]Man(a1-6)[Gal(b1-4)GlcNAc(b1-2)Man(a1-3)]Man(b1-4)GlcNAc(b1-4)GlcNAc
Method in brief: as §1

[25] = biological target: Gal(b1-4)GlcNAc(b1-2)[Gal(b1-4)GlcNAc(b1-6)]Man(a1-6)[Gal(b1-4)GlcNAc(b1-2)Man(a1-3)]Man(b1-4)GlcNAc(b1-4)[Fuc(a1-6)]GlcNAc
Method in brief: as §1

[26] = biological target: Gal(b1-4)GlcNAc(b1-2)[Gal(b1-4)GlcNAc(b1-6)]Man(a1-6)[GlcNAc(b1-4)][Gal(b1-4)GlcNAc(b1-2)Man(a1-3)]Man(b1-4)GlcNAc(b1-4)GlcNAc
Method in brief: as §1

[27] = biological target: Gal(b1-4)GlcNAc(b1-2)[Gal(b1-4)GlcNAc(b1-6)]Man(a1-6)[GlcNAc(b1-4)][Gal(b1-4)GlcNAc(b1-2)[Gal(b1-4)GlcNAc(b1-4)]Man(a1-3)]Man(b1-4)GlcNAc(b1-4)[Fuc(a1-6)]GlcNAc
Method in brief: as §1

[28] = biological target: Gal(b1-4)GlcNAc(b1-3)Gal(b1-3)GalNAc
Method in brief: as §1

[29] = biological target: Gal(b1-4)GlcNAc(b1-3)Gal(b1-3)GlcNAc
Method in brief: as §1

[30] = biological target: Gal(b1-4)GlcNAc(b1-3)Gal(b1-4)Glc
Method in brief: as §1

[31] = biological target: Gal(b1-4)GlcNAc(b1-3)Gal(b1-4)GlcNAc
Method in brief: as §1

[32] = biological target: Gal(b1-4)GlcNAc(b1-3)Gal(b1-4)GlcNAc(b1-2)Man(a1-3)[Gal(b1-4)GlcNAc(b1-3)Gal(b1-4)GlcNAc(b1-2)Man(a1-6)]Man(b1-4)GlcNAc(b1-4)GlcNAc
Method in brief: as §1

[33] = biological target: Gal(b1-4)GlcNAc(b1-3)Gal(b1-4)GlcNAc(b1-2)Man(a1-3)[Gal(b1-4)GlcNAc(b1-3)Gal(b1-4)GlcNAc(b1-2)Man(a1-6)]Man(b1-4)GlcNAc(b1-4)[Fuc(a1-6)]GlcNAc
Method in brief: as §1

B1: GS7807F-bth-514-18-514 (Bacteroides thetaiotaomicron) (protein)
chain: AGSCTGNFEEYNTNQFQIHEADPSTLMKSMIETIVNIQQNDSQMMDQMVGQLGGYLTCANVWSGTNFGTFNQSDAWNAGPWNTNFEKIYGNFFQIQEATNESGHYYAFARMIRAITMLRVADCYGPMPYSQVKKGNFYVAYDTEEQVYKNIMEDFASAANVLYNYYKDTNGNAPLASNDPVFSGNYANWARLANSMRLRVAIRISTAYPEMAKENAEAAASHEAGLIEANNDNAMMDCGSQTNPYQLAAVSWGDLRVNANIVDYMNGYGDPRMSKYFNHSTFTGHTQEYVGMRSGEDGFAKSDVAGYSIPAITGTSKLLVFCAAETAFLRAEGKLKNWSVGNKSAKEYYEEGIKLSMEQYGTTMPDNYLTNTEKPTVSHNNDPRGHAYTISNTVAVAWNDNNEEENLQRIITQKWIANYPLGLEAWAEYRRTGYPELYPCIDNLSPSGVDSKRGMRRLRFPYTEVQNNHSNYQQGVSYLKNGGPDNEATDLSWGKTN
[1]
  glycan array binding signal (z-score): 1.82
[2]
  glycan array binding signal (z-score): -0.455
[3]
  glycan array binding signal (z-score): -0.323
[4]
  glycan array binding signal (z-score): 0.228
[5]
  glycan array binding signal (z-score): -0.871
Gal(b1-4)Gal
  glycan array binding signal (z-score): 0.687
[6]
  glycan array binding signal (z-score): -0.13
[7]
  glycan array binding signal (z-score): -0.798
Gal(b1-4)Glc
  glycan array binding signal (z-score): -0.577
Gal(b1-4)Glc6S
  glycan array binding signal (z-score): 2.34
Gal(b1-4)GlcNAc
  glycan array binding signal (z-score): -0.131
[8]
  glycan array binding signal (z-score): -0.505
Gal(b1-4)GlcNAc(b1-2)Man
  glycan array binding signal (z-score): 0.558
[9]
  glycan array binding signal (z-score): 0.202
[10]
  glycan array binding signal (z-score): -0.342
[11]
  glycan array binding signal (z-score): 0.975
[12]
  glycan array binding signal (z-score): 0.619
[13]
  glycan array binding signal (z-score): 0.192
[14]
  glycan array binding signal (z-score): -0.7
[15]
  glycan array binding signal (z-score): -0.47
[16]
  glycan array binding signal (z-score): 0.371
[17]
  glycan array binding signal (z-score): 0.698
[18]
  glycan array binding signal (z-score): 0.284
[19]
  glycan array binding signal (z-score): 1.74
[20]
  glycan array binding signal (z-score): 0.432
[21]
  glycan array binding signal (z-score): -0.476
[22]
  glycan array binding signal (z-score): 0.403
[23]
  glycan array binding signal (z-score): 0.292
[24]
  glycan array binding signal (z-score): -0.364
[25]
  glycan array binding signal (z-score): -0.133
[26]
  glycan array binding signal (z-score): 0.819
[27]
  glycan array binding signal (z-score): -0.182
[28]
  glycan array binding signal (z-score): -0.595
[29]
  glycan array binding signal (z-score): -0.209
[30]
  glycan array binding signal (z-score): 0.607
[31]
  glycan array binding signal (z-score): 0.003
[32]
  glycan array binding signal (z-score): -0.281
[33]
  glycan array binding signal (z-score): 0.635
